From the supplement of paper PMC10849652
Some of the results follow.

By UniProt entry, the sequences of proteins in these tests, tags left out. Where a name states a change or a piece, a line headed by the entry shows the natural chain unless it says otherwise.
UniProt Q9P0P0: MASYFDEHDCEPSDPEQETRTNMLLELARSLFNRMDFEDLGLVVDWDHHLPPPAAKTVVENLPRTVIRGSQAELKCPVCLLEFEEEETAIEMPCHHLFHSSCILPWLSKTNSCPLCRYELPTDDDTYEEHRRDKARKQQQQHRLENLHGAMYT
UniProt P84095: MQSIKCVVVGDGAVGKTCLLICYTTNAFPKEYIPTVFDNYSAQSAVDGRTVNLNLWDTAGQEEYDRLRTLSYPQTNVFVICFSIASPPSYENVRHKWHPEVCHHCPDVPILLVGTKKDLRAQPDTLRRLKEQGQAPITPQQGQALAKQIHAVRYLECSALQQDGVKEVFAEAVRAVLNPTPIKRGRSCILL
UniProt Q6JBY9, whole entry, looked up: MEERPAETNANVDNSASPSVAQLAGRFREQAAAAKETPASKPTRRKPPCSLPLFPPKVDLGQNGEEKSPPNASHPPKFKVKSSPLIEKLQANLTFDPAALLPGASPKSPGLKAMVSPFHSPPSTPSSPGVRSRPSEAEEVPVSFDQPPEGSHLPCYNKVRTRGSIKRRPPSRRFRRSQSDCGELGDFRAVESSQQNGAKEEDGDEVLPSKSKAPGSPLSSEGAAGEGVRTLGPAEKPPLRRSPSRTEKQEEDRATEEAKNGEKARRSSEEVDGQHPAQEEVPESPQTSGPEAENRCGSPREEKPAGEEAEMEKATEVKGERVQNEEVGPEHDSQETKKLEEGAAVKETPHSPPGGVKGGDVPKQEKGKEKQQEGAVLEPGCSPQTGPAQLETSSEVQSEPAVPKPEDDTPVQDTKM
UniProt Q96D71: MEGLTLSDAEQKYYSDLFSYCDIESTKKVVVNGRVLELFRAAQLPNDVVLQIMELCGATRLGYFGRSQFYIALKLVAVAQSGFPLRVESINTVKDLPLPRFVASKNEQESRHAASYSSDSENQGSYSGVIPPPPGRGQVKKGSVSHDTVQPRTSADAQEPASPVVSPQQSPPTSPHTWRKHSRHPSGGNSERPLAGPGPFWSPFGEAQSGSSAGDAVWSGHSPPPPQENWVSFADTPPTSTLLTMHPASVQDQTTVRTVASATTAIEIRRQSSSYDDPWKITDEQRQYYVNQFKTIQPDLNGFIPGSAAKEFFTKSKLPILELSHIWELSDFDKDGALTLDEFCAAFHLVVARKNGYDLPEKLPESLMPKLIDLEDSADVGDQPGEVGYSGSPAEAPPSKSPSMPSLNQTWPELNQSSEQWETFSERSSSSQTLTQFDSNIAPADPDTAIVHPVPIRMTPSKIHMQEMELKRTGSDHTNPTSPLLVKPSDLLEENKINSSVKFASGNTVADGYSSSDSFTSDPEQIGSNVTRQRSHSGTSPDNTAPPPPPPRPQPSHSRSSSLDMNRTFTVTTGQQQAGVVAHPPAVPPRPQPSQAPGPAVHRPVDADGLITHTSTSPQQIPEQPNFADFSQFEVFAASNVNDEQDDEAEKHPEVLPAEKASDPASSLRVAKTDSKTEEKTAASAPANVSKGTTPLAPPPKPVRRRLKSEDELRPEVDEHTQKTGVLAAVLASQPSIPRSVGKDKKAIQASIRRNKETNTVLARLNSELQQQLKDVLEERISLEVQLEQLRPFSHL
UniProt P38159: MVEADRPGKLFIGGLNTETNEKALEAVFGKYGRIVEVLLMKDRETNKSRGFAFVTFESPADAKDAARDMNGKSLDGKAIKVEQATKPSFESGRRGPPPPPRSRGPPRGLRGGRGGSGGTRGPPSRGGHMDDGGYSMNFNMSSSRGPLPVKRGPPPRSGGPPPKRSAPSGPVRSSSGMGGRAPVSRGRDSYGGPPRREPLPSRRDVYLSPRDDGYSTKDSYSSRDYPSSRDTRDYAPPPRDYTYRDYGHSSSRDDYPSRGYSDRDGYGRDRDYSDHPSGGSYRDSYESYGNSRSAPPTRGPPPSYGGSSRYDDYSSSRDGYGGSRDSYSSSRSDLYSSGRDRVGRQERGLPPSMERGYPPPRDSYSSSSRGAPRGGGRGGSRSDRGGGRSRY
UniProt Q02094: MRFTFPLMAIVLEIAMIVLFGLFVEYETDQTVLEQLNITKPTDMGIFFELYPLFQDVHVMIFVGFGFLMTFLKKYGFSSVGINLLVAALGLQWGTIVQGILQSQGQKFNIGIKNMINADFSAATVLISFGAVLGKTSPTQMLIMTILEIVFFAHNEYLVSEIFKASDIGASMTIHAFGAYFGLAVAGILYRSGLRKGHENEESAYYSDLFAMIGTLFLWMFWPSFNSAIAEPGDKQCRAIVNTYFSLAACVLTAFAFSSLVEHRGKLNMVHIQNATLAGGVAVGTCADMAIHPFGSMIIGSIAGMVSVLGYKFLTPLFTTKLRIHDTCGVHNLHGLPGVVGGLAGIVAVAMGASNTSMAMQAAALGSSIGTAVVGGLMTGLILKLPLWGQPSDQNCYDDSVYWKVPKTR
UniProt Q96AA3: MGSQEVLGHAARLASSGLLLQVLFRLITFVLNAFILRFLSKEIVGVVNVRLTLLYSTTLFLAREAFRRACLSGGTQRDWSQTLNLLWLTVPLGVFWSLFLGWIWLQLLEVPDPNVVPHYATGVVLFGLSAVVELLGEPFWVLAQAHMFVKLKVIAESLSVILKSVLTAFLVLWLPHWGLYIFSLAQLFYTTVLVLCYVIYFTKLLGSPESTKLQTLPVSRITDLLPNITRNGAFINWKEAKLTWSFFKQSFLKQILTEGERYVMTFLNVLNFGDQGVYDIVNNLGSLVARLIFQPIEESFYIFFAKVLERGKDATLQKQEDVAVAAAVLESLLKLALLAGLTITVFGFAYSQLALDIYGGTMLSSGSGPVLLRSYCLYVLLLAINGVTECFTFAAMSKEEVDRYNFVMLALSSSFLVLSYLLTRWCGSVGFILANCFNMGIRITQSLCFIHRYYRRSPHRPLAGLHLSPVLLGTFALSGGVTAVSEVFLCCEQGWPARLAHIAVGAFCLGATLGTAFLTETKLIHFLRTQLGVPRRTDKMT
UniProt Q06330: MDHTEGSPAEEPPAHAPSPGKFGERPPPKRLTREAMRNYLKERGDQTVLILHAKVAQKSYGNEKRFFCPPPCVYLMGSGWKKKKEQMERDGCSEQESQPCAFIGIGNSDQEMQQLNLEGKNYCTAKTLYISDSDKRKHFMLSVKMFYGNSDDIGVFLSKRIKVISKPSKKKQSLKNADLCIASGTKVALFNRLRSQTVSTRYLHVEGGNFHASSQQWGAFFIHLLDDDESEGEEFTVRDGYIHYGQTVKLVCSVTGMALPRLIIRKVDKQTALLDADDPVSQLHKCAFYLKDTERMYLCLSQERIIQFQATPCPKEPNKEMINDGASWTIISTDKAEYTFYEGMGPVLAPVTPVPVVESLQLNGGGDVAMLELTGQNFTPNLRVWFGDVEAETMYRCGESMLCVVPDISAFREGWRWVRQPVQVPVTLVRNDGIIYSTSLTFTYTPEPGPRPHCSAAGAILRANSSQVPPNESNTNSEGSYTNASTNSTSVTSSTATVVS
UniProt Q9Y3B8: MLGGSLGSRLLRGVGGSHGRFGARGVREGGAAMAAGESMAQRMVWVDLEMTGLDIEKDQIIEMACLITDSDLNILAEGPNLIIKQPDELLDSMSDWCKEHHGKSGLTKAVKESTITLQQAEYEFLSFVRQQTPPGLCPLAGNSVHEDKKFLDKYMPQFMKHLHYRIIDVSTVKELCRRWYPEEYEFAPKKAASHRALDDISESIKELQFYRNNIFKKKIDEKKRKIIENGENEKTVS
UniProt P08134, whole entry, looked up: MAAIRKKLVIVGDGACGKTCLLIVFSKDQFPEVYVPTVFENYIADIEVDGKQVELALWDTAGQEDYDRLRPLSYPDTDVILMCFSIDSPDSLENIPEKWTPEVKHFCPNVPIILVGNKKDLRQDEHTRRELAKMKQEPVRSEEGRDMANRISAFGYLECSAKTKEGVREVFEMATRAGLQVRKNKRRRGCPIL
UniProt O15541: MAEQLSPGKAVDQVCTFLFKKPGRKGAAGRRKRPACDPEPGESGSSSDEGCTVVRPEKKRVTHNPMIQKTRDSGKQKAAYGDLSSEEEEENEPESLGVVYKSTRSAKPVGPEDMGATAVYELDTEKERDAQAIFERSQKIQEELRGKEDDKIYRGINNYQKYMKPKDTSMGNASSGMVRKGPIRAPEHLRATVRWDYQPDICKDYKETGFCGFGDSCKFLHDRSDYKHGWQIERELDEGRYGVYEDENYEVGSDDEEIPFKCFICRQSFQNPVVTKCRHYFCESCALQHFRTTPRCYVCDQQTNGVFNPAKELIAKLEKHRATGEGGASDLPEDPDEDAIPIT
UniProt Q9H0Z9: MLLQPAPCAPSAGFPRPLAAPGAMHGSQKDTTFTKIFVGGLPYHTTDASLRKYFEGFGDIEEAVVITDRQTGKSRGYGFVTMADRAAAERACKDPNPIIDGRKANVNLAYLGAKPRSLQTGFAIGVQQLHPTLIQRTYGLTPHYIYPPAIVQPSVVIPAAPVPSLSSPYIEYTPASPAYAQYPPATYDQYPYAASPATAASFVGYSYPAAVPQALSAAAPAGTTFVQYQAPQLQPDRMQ
UniProt Q9Y508: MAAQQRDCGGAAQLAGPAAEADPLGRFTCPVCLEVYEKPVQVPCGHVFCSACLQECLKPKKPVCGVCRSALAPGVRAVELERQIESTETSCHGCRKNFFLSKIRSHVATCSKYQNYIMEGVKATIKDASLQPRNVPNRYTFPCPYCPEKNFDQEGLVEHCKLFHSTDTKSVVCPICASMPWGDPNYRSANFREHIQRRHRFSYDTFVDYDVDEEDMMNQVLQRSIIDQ
UniProt Q00765: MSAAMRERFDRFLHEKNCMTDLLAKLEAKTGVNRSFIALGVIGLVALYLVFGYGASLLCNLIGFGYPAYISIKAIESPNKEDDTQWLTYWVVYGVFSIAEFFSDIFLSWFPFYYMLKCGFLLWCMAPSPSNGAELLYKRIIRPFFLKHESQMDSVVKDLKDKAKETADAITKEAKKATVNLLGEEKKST
UniProt P51606: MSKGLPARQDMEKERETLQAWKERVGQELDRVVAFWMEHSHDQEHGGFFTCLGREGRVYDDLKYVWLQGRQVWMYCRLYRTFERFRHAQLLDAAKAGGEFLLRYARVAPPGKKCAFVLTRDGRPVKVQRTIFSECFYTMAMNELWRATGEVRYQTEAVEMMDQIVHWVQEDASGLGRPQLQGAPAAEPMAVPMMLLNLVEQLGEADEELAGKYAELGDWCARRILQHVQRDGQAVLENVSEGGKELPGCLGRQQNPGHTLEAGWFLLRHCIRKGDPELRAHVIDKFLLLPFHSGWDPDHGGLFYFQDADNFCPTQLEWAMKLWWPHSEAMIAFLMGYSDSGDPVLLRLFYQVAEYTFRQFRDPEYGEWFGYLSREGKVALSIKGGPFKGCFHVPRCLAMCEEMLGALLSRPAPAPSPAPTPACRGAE
UniProt P35249, whole entry, looked up: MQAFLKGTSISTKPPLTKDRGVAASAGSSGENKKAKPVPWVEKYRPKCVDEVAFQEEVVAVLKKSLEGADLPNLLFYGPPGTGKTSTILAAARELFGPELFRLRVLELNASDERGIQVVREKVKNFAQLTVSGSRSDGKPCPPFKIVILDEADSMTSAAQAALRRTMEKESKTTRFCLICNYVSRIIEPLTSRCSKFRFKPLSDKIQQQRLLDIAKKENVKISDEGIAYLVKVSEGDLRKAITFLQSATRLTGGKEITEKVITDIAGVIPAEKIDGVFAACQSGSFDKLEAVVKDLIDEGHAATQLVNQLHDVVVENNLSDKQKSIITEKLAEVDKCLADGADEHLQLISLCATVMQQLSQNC
UniProt A6NED2: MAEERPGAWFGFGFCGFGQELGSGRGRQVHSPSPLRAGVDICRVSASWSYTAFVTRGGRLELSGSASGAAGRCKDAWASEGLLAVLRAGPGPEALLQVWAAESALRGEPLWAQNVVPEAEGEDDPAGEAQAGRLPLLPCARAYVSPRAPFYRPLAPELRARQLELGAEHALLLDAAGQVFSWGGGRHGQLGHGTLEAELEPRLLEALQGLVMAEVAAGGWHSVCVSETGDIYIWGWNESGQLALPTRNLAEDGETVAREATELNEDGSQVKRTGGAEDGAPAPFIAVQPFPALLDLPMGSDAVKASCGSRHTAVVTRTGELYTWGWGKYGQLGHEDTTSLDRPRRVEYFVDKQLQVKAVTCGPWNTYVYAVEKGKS
UniProt Q9BWE0: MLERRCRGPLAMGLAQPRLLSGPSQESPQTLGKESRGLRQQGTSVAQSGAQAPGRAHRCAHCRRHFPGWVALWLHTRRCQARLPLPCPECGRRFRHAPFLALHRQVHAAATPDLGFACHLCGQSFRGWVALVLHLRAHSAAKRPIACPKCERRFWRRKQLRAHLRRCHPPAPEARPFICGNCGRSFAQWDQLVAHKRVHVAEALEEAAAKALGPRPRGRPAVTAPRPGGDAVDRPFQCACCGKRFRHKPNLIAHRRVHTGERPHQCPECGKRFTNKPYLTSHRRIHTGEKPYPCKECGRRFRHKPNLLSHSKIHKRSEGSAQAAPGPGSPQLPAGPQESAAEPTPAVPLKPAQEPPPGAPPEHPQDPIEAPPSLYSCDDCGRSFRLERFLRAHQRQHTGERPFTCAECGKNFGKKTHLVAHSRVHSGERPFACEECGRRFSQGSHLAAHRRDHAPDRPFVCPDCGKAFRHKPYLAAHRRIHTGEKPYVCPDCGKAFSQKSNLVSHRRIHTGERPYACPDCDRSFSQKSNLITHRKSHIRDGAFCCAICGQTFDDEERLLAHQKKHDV

Compound: CCn1c(C(=O)N(C2CC2)C2CC2)cc2c3c(ncn3C)c(Nc3cc(C)n(C)n3)nc21
Test: log2 fold change, soluble protein after heating vs DMSO (PISA); higher = thermal stabilisation; K562 cells, 10 uM, 30 min; active = over 0.2 and 3.5 SD of the protein, either way, in both replicates (recomputed)
Summary of the method: (§1)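 Aliquots of K562 cells (2×10^6 cells/mL) treated with 10 μM compound for 30 min were heated for 3 min over 48°C-58°C. After pooling and extraction in PBS with 0.5% NP-40 at 4°C, soluble protein from a 21,000xg, 90 min spin was quantified by TMTpro 16plex LC-MS/MS with channel sums equalised. Thermal stability is expressed against control samples, from duplicates, as a log2 fold change.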

log2 fold change, inactive:
RNF24 isoform 2 (UniProt Q9Y225) -0.035, RFK (UniProt Q969G6) 0.023, RNF181 (UniProt Q9P0P0) -0.023, RHOG (UniProt P84095) 0.026, RCSD1 (UniProt Q6JBY9) -0.028, RMND1 (UniProt Q9NWS8) 0.009, RNF213 isoform 4 (UniProt Q63HN8) -0.071, REPS1 (UniProt Q96D71) 0.143, REEP3 (UniProt Q6NUK4) 0.01, RFX1 (UniProt P22670) -0.054, RBMX (UniProt P38159) -0.008, RIOK1 (UniProt Q9BRS2) 0.036, RHOT2 (UniProt Q8IXI1) -0.01, RILP (UniProt Q96NA2) 0.024, RHAG (UniProt Q02094) 0.04, RCC2 (UniProt Q9P258) 0.011, RFT1 (UniProt Q96AA3) 0.006, RBPJ (UniProt Q06330) 0.019, REXO2 (UniProt Q9Y3B8) 0, RDX (UniProt P35241) 0.025, RHOC (UniProt P08134) -0.03, RNF113A (UniProt O15541) 0.01, RBM38 (UniProt Q9H0Z9) 0.034, RHOB (UniProt P62745) -0.07, RHBDD1 (UniProt Q8TEB9) 0.093, RNF114 (UniProt Q9Y508) -0.014, RCN2 isoform 2 (UniProt Q14257) -0.011, RNF214 (UniProt Q8ND24) -0.012, RELN (UniProt P78509) 0.051, RCC1L (UniProt Q96I51) -0.002, REEP5 (UniProt Q00765) 0.006, RMDN3 (UniProt Q96TC7) 0.011, RENBP (UniProt P51606) -0.009, RFC4 (UniProt P35249) -0.026, REEP6 (UniProt Q96HR9) 0.007, RMDN1 (UniProt Q96DB5) 0.03, RCCD1 (UniProt A6NED2) -0.017, REPIN1 isoform 4 (UniProt Q9BWE0) -0.059

Compound: CCn1cc(-c2ccnc3[nH]c(-c4cccc(CN(C)C)c4)cc23)c(-c2ccc(NC(=O)N(C)C)cc2)n1
Test: as above
Summary of the method: as §1

log2 fold change, inactive:
RNF24 isoform 2 (UniProt Q9Y225) 0.214, RFK (UniProt Q969G6) -0.051, RNF181 (UniProt Q9P0P0) 0.014, RHOG (UniProt P84095) 0.012, RCSD1 (UniProt Q6JBY9) 0.086, RMND1 (UniProt Q9NWS8) -0.072, RNF213 isoform 4 (UniProt Q63HN8) 0.086, REPS1 (UniProt Q96D71) 0.152, REEP3 (UniProt Q6NUK4) 0.02, RFX1 (UniProt P22670) -0.045, RBMX (UniProt P38159) 0.264, RIOK1 (UniProt Q9BRS2) 0.015, RHOT2 (UniProt Q8IXI1) 0.014, RILP (UniProt Q96NA2) -0.017, RHAG (UniProt Q02094) 0.074, RCC2 (UniProt Q9P258) -0.002, RFT1 (UniProt Q96AA3) 0.011, RBPJ (UniProt Q06330) -0.014, REXO2 (UniProt Q9Y3B8) 0.013, RDX (UniProt P35241) -0.005, RHOC (UniProt P08134) -0.034, RNF113A (UniProt O15541) 0.004, RBM38 (UniProt Q9H0Z9) -0.103, RHOB (UniProt P62745) -0.151, RHBDD1 (UniProt Q8TEB9) 0.015, RNF114 (UniProt Q9Y508) -0.027, RCN2 isoform 2 (UniProt Q14257) 0.029, RNF214 (UniProt Q8ND24) -0.045, RELN (UniProt P78509) -0.002, RCC1L (UniProt Q96I51) -0.025, REEP5 (UniProt Q00765) -0.046, RMDN3 (UniProt Q96TC7) -0.052, RENBP (UniProt P51606) -0.104, RFC4 (UniProt P35249) -0.052, REEP6 (UniProt Q96HR9) -0.014, RMDN1 (UniProt Q96DB5) -0.062, RCCD1 (UniProt A6NED2) -0.072, REPIN1 isoform 4 (UniProt Q9BWE0) -0.015
